Assay results: US10525115B2 (Immatics Biotechnologies GmbH, priority 2014, dated 2020)

B1: SSX2IP synovial sarcoma, X breakpoint 2 interacting protein: established AML-associated antigen, source protein of the HLA ligands listed under it (protein, UniProt Q9Y2D8 1-614, looked up)
Afadin- and …: MGDWMTVTDPGLSSESKTISQYTSETKMSPSSLYSQQVLCSSIPLSKNVHSFFSAFCTEDNIEQSISYLDQELTTFGFPSLYEESKGKETKRELNIVAVLNCMNELLVLQRKNLLAQENVETQNLKLGSDMDHLQSCYSKLKEQLETSRREMIGLQERDRQLQCKNRNLHQLLKNEKDEVQKLQNIIASRATQYNHDMKRKEREYNKLKERLHQLVMNKKDKKIAMDILNYVGRADGKRGSWRTGKTEARNEDEMYKILLNDYEYRQKQILMENAELKKVLQQMKKEMISLLSPQKKKPRERVDDSTGTVISDVEEDAGELSRESMWDLSCETVREQLTNSIRKQWRILKSHVEKLDNQVSKVHLEGFNDEDVISRQDHEQETEKLELEIQQCKEMIKTQQQLLQQQLATAYDDDTTSLLRDCYLLEEKERLKEEWSLFKEQKKNFERERRSFTEAAIRLGLERKAFEEERASWLKQQFLNMTTFDHQNSENVKLFSAFSGSSDWDNLIVHSRQPQKKPHSVSNGSPVCMSKLTKSLPASPSTSDFCQTRSCISEHSSINVLNITAEEIKPNQVGGECTNQKWSVASRPGSQEGCYSGCSLSYTNSHVEKDDLP
B2: CLSTN1 calsyntenin 1: HLA class II ligandome-derived tumor-associated antigen (LiTAA), source protein of the peptides listed under it (protein, UniProt O94985 29-981, looked up)
Calsyntenin-1: ARVNKHKPWLEPTYHGIVTENDNTVLLDPPLIALDKDAPLRFAESFEVTVTKEGEICGFKIHGQNVPFDAVVVDKSTGEGVIRSKEKLDCELQKDYSFTIQAYDCGKGPDGTNVKKSHKATVHIQVNDVNEYAPVFKEKSYKATVIEGKQYDSILRVEAVDADCSPQFSQICSYEIITPDVPFTVDKDGYIKNTEKLNYGKEHQYKLTVTAYDCGKKRATEDVLVKISIKPTCTPGWQGWNNRIEYEPGTGALAVFPNIHLETCDEPVASVQATVELETSHIGKGCDRDTYSEKSLHRLCGAAAGTAELLPSPSGSLNWTMGLPTDNGHDSDQVFEFNGTQAVRIPDGVVSVSPKEPFTISVWMRHGPFGRKKETILCSSDKTDMNRHHYSLYVHGCRLIFLFRQDPSEEKKYRPAEFHWKLNQVCDEEWHHYVLNVEFPSVTLYVDGTSHEPFSVTEDYPLHPSKIETQLVVGACWQEFSGVENDNETEPVTVASAGGDLHMTQFFRGNLAGLTLRSGKLADKKVIDCLYTCKEGLDLQVLEDSGRGVQIQAHPSQLVLTLEGEDLGELDKAMQHISYLNSRQFPTPGIRRLKITSTIKCFNEATCISVPPVDGYVMVLQPEEPKISLSGVHHFARAASEFESSEGVFLFPELRIISTITREVEPEGDGAEDPTVQESLVSEEIVHDLDTCEVTVEGEELNHEQESLEVDMARLQQKGIEVSSSELGMTFTGVDTMASYEEVLHLLRYRNWHARSLLDRKFKLICSELNGRYISNEFKVEVNVIHTANPMEHANHMAAQPQFVHPEHRSFVDLSGHNLANPHPFAVVPSTATVVIVVCVSFLVFMIILGVFRIRAAHRRTMRDQDTGKENEMDWDDSALTITVNPMETYEDQHSSEEEEEEEEEEESEDGEEEDDITSAESESSEEEEGEQGDPQNATRQQQLEWDDSTLSY
B3: PRAM1 PML-RARA regulated adaptor molecule 1: established AML-associated antigen, source protein of the HLA ligands listed under it (protein, UniProt Q96QH2 1-670, looked up)
PML-RARA-regulated adapter …: MAHHLPAAMESHQDFRSIKAKFQASQPEPSDLPKKPPKPEFGKLKKFSQPELSEHPKKAPLPEFGAVSLKPPPPEVTDLPKKPPPPEVTDLPKKPPPPEVTDLPKKPPPPEVTDLPKKPSKLELSDLSKKFPQLGATPFPRKPLQPEVGEAPLKASLPEPGAPARKPLQPDELSHPARPPSEPKSGAFPRKLWQPEAGEATPRSPQPELSTFPKKPAQPEFNVYPKKPPQPQVGGLPKKSVPQPEFSEAAQTPLWKPQSSEPKRDSSAFPKKASQPPLSDFPKKPPQPELGDLTRTSSEPEVSVLPKRPRPAEFKALSKKPPQPELGGLPRTSSEPEFNSLPRKLLQPERRGPPRKFSQPEPSAVLKRHPQPEFFGDLPRKPPLPSSASESSLPAAVAGFSSRHPLSPGFGAAGTPRWRSGGLVHSGGARPGLRPSHPPRRRPLPPASSLGHPPAKPPLPPGPVDMQSFRRPSAASIDLRRTRSAAGLHFQDRQPEDIPQVPDEIYELYDDVEPRDDSSPSPKGRDEAPSVQQAARRPPQDPALRKEKDPQPQQLPPMDPKLLKQLRKAEKAEREFRKKFKFEGEIVVHTKMMIDPNAKTRRGGGKHLGIRRGEILEVIEFTSNEEMLCRDPKGKYGYVPRTALLPLETEVYDDVDFCDPLENQPLPLGR
B4: PLIN3 perilipin 3: HLA class II ligandome-derived tumor-associated antigen (LiTAA), source protein of the peptides listed under it (protein, UniProt O60664 2-434, looked up)
Perilipin-3: SADGAEADGSTQVTVEEPVQQPSVVDRVASMPLISSTCDMVSAAYASTKESYPHIKTVCDAAEKGVRTLTAAAVSGAQPILSKLEPQIASASEYAHRGLDKLEENLPILQQPTEKVLADTKELVSSKVSGAQEMVSSAKDTVATQLSEAVDATRGAVQSGVDKTKSVVTGGVQSVMGSRLGQMVLSGVDTVLGKSEEWADNHLPLTDAELARIATSLDGFDVASVQQQRQEQSYFVRLGSLSERLRQHAYEHSLGKLRATKQRAQEALLQLSQVLSLMETVKQGVDQKLVEGQEKLHQMWLSWNQKQLQGPEKEPPKPEQVESRALTMFRDIAQQLQATCTSLGSSIQGLPTNVKDQVQQARRQVEDLQATFSSIHSFQDLSSSILAQSRERVASAREALDHMVEYVAQNTPVTWLVGPFAPGITEKAPEEKK
B5: SPN sialophorin: HLA class II ligandome-derived tumor-associated antigen (LiTAA), source protein of the peptides listed under it (protein, UniProt P16150 20-400, looked up)
Leukosialin: STTAVQTPTSGEPLVSTSEPLSSKMYTTSITSDPKADSTGDQTSALPPSTSINEGSPLWTSIGASTGSPLPEPTTYQEVSIKMSSVPQETPHATSHPAVPITANSLGSHTVTGGTITTNSPETSSRTSGAPVTTAASSLETSRGTSGPPLTMATVSLETSKGTSGPPVTMATDSLETSTGTTGPPVTMTTGSLEPSSGASGPQVSSVKLSTMMSPTTSTNASTVPFRNPDENSRGMLPVAVLVALLAVIVLVALLLLWRRRQKRRTGALVLSRGGKRNGVVDAWAGPAQVPEEGAVTVTVGGSGGDKGSGFPDGEGSSRRPTLTTFFGRRKSRQGSLAMEELKSGSGPSLKGEEEPLVASEDGAVDAPAPDEPEGGDGAAP
B6: QSOX1 quiescin Q6 sulfhydryl oxidase 1: HLA class II ligandome-derived tumor-associated antigen (LiTAA), source protein of the peptides listed under it (protein, UniProt O00391 30-747, looked up)
Sulfhydryl oxidase 1: APRSALYSPSDPLTLLQADTVRGAVLGSRSAWAVEFFASWCGHCIAFAPTWKALAEDVKAWRPALYLAALDCAEETNSAVCRDFNIPGFPTVRFFKAFTKNGSGAVFPVAGADVQTLRERLIDALESHHDTWPPACPPLEPAKLEEIDGFFARNNEEYLALIFEKGGSYLGREVALDLSQHKGVAVRRVLNTEANVVRKFGVTDFPSCYLLFRNGSVSRVPVLMESRSFYTAYLQRLSGLTREAAQTTVAPTTANKIAPTVWKLADRSKIYMADLESALHYILRIEVGRFPVLEGQRLVALKKFVAVLAKYFPGRPLVQNFLHSVNEWLKRQKRNKIPYSFFKTALDDRKEGAVLAKKVNWIGCQGSEPHFRGFPCSLWVLFHFLTVQAARQNVDHSQEAAKAKEVLPAIRGYVHYFFGCRDCASHFEQMAAASMHRVGSPNAAVLWLWSSHNRVNARLAGAPSEDPQFPKVQWPPRELCSACHNERLDVPVWDVEATLNFLKAHFSPSNIILDFPAAGSAARRDVQNVAAAPELAMGALELESRNSTLDPGKPEMMKSPTNTTPHVPAEGPEASRPPKLHPGLRAAPGQEPPEHMAELQRNEQEQPLGQWHLSKRDTGAALLAESRAEKNRLWGPLEVRRVGRSSKQLVDIPEGQLEARAGRGRGQWLQVLGGGFSYLDISLCVGLYSLSFMGLLAMYTYFQAKIRALKGHAGHPAA
B7: MANBA mannosidase, beta A, lysosomal: HLA class II ligandome-derived tumor-associated antigen (LiTAA), source protein of the peptides listed under it (protein, UniProt O00462 18-879, looked up)
Beta-mannosidase: AAELSYSLRGNWSICNGNGSLELPGAVPGCVHSALFQQGLIQDSYYRFNDLNYRWVSLDNWTYSKEFKIPFEISKWQKVNLILEGVDTVSKILFNEVTIGETDNMFNRYSFDITNVVRDVNSIELRFQSAVLYAAQQSKAHTRYQVPPDCPPLVQKGECHVNFVRKEQCSFSWDWGPSFPTQGIWKDVRIEAYNICHLNYFTFSPIYDKSAQEWNLEIESTFDVVSSKPVGGQVIVAIPKLQTQQTYSIELQPGKRIVELFVNISKNITVETWWPHGHGNQTGYNMTVLFELDGGLNIEKSAKVYFRTVELIEEPIKGSPGLSFYFKINGFPIFLKGSNWIPADSFQDRVTSELLRLLLQSVVDANMNTLRVWGGGIYEQDEFYELCDELGIMVWQDFMFACALYPTDQGFLDSVTAEVAYQIKRLKSHPSIIIWSGNNENEEALMMNWYHISFTDRPIYIKDYVTLYVKNIRELVLAGDKSRPFITSSPTNGAETVAEAWVSQNPNSNYFGDVHFYDYISDCWNWKVFPKARFASEYGYQSWPSFSTLEKVSSTEDWSFNSKFSLHRQHHEGGNKQMLYQAGLHFKLPQSTDPLRTFKDTIYLTQVMQAQCVKTETEFYRRSRSEIVDQQGHTMGALYWQLNDIWQAPSWASLEYGGKWKMLHYFAQNFFAPLLPVGFENENTFYIYGVSDLHSDYSMTLSVRVHTWSSLEPVCSRVTERFVMKGGEAVCLYEEPVSELLRRCGNCTRESCVVSFYLSADHELLSPTNYHFLSSPKEAVGLCKAQITAIISQQGDIFVFDLETSAVAPFVWLDVGSIPGRFSDNGFLMTEKTRTILFYPWEPTSKNELEQSFHVTSLTDIY

Columns and labels:
Set-up in all cases: species or system human
primary AML samples [1] = assay: HLA class I ligandome analysis (W6/32 immunoaffinity purification, LC-MS/MS) of primary AML samples; conditions: 15 AML samples; for Number of positive AMLs: HLA class I ligandome; for rep. frequency % in AMLs: source protein level, HLA class I
BMNC of healthy donors = assay: HLA class I ligandome analysis (LC-MS/MS) of healthy donor BMNC; conditions: 5 BMNC samples; for Number of positive healthy donors (BMNC): HLA class I ligandome, second figure of the cell; for rep. frequency % in healthy donors (BMNC): source protein level
primary AML samples [2] = assay: HLA class II ligandome analysis (LC-MS/MS) of primary AML samples; conditions: AML patients n=12; for Number of positive AMLs: HLA class II ligandome; for rep. frequency in AMLs: source protein level, HLA class II

| Molecule | Number of positive AMLs (primary AML samples [1]) | rep. frequency % in AMLs (primary AML samples [1]) [%] | Number of positive healthy donors (BMNC) (BMNC of healthy donors) | rep. frequency % in healthy donors (BMNC) (BMNC of healthy donors) [%] | Number of positive AMLs (primary AML samples [2]) | rep. frequency in AMLs (primary AML samples [2]) [%] |
| --- | --- | --- | --- | --- | --- | --- |
| B1 | 0 | 0.0 | 0 | 0.0 |  |  |
| B2 |  |  |  |  | 4 | 33.3 |
| B3 | 3 | 20.0 | 1 | 20.0 |  |  |
| B4 |  |  |  |  | 4 | 33.3 |
| B5 |  |  |  |  | 4 | 33.3 |
| B6 |  |  |  |  | 3 | 25.0 |
| B7 |  |  |  |  | 3 | 25.0 |
